By MIC is commonly meant the smallest concentration in the dilution series that meets the test's criterion for growth inhibition. The low end stands for inhibition by little substance, the high end for a need for much substance.

The assay deals with Candida albicans. As to the kind of experiment: Antimicrobial activity against Candida albicans ATCC 10231. It is filed as functional.

In brackets after ≈: the same amount, converted by molar mass.

`C[C@@H]1[C@H](O)[C@@H](C)/C=C/C=C/C=C/C=C/C=C/C=C/C=C/[C@H](O[C@@H]2O[C@H](C)[C@@H](O)[C@H](N)[C@@H]2O)C[C@@H]2O[C@](O)(C[C@@H](O)C[C@@H](O)[C@H](O)CC[C@@H](O)C[C@@H](O)CC(=O)O[C@H]1C)C[C@H](O)[C@H]2C(=O)O` [AMPHOTERICIN B] gave a minimal inhibitory concentration (MIC) of 0.39 µg/mL (≈ 0.422 µM).

The values above are taken from ChEMBL document CHEMBL1157296, “Cytotoxic and antimicrobial benzophenones from the leaves of Tovomita longifolia” (2006).
